Assay results from ChEMBL document CHEMBL4316593 (Eur J Med Chem, 2019).
This continues a long series; more values of the same kind are listed elsewhere.

Legend:
Type in all cases: cell-based
Settings in all cases: U-87MG ATCC
[1] = Inhibition of RTK/PI3K/AKT/mTOR signaling in human U87 cells assessed as down regulation of ARHGEF26 gene expression at cytotoxic IC50 measured after 48 hrs relative to control
[2] = Inhibition of RTK/PI3K/AKT/mTOR signaling in human U87 cells assessed as down regulation of GPAM gene expression at cytotoxic IC50 measured after 48 hrs relative to control
[3] = Inhibition of RTK/PI3K/AKT/mTOR signaling in human U87 cells assessed as down regulation of WNT9A gene expression at cytotoxic IC50 measured after 48 hrs relative to control
[4] = Inhibition of RTK/PI3K/AKT/mTOR signaling in human U87 cells assessed as down regulation of GCH1 gene expression at cytotoxic IC50 measured after 48 hrs relative to control
[5] = Inhibition of RTK/PI3K/AKT/mTOR signaling in human U87 cells assessed as down regulation of KIAA1468 gene expression at cytotoxic IC50 measured after 48 hrs relative to control
[6] = Inhibition of RTK/PI3K/AKT/mTOR signaling in human U87 cells assessed as down regulation of RNR1 gene expression at cytotoxic IC50 measured after 48 hrs relative to control
[7] = Inhibition of RTK/PI3K/AKT/mTOR signaling in human U87 cells assessed as down regulation of COPS8 gene expression at cytotoxic IC50 measured after 48 hrs relative to control
[8] = Inhibition of RTK/PI3K/AKT/mTOR signaling in human U87 cells assessed as down regulation of PLAGL1 gene expression at cytotoxic IC50 measured after 48 hrs relative to control
[9] = Inhibition of RTK/PI3K/AKT/mTOR signaling in human U87 cells assessed as down regulation of TOR3A gene expression at cytotoxic IC50 measured after 48 hrs relative to control
[10] = Inhibition of RTK/PI3K/AKT/mTOR signaling in human U87 cells assessed as down regulation of NET1 gene expression at cytotoxic IC50 measured after 48 hrs relative to control
[11] = Inhibition of RTK/PI3K/AKT/mTOR signaling in human U87 cells assessed as down regulation of CPT1A gene expression at cytotoxic IC50 measured after 48 hrs relative to control
[12] = Inhibition of RTK/PI3K/AKT/mTOR signaling in human U87 cells assessed as down regulation of LNX2 gene expression at cytotoxic IC50 measured after 48 hrs relative to control
[13] = Inhibition of RTK/PI3K/AKT/mTOR signaling in human U87 cells assessed as down regulation of DPM1 gene expression at cytotoxic IC50 measured after 48 hrs relative to control
[14] = Inhibition of RTK/PI3K/AKT/mTOR signaling in human U87 cells assessed as down regulation of AZIN1 gene expression at cytotoxic IC50 measured after 48 hrs relative to control
[15] = Inhibition of RTK/PI3K/AKT/mTOR signaling in human U87 cells assessed as down regulation of ATP6V1E1 gene expression at cytotoxic IC50 measured after 48 hrs relative to control
[16] = Inhibition of RTK/PI3K/AKT/mTOR signaling in human U87 cells assessed as down regulation of PSMD3 gene expression at cytotoxic IC50 measured after 48 hrs relative to control
[17] = Inhibition of RTK/PI3K/AKT/mTOR signaling in human U87 cells assessed as down regulation of HNRNPAB gene expression at cytotoxic IC50 measured after 48 hrs relative to control
[18] = Inhibition of RTK/PI3K/AKT/mTOR signaling in human U87 cells assessed as up regulation of PTCHD4 gene expression at cytotoxic IC50 measured after 48 hrs relative to control
[19] = Inhibition of RTK/PI3K/AKT/mTOR signaling in human U87 cells assessed as up regulation of LOXL4 gene expression at cytotoxic IC50 measured after 48 hrs relative to control
[20] = Inhibition of RTK/PI3K/AKT/mTOR signaling in human U87 cells assessed as up regulation of C1orf116 gene expression at cytotoxic IC50 measured after 48 hrs relative to control
[21] = Inhibition of RTK/PI3K/AKT/mTOR signaling in human U87 cells assessed as up regulation of kringle containing transmembrane protein 2 gene expression at cytotoxic IC50 measured after 48 hrs relative to control
[22] = Inhibition of RTK/PI3K/AKT/mTOR signaling in human U87 cells assessed as up regulation of discoidin, CUB and LCCL domain containing 2 gene expression at cytotoxic IC50 measured after 48 hrs relative to control
[23] = Inhibition of RTK/PI3K/AKT/mTOR signaling in human U87 cells assessed as up regulation of kaptin, actin binding protein gene expression at cytotoxic IC50 measured after 48 hrs relative to control
[24] = Inhibition of RTK/PI3K/AKT/mTOR signaling in human U87 cells assessed as up regulation of prolyl 4-hydroxylase subunit beta gene expression at cytotoxic IC50 measured after 48 hrs relative to control
[25] = Inhibition of RTK/PI3K/AKT/mTOR signaling in human U87 cells assessed as up regulation of tripartite motif containing 32 gene expression at cytotoxic IC50 measured after 48 hrs relative to control
[26] = Inhibition of RTK/PI3K/AKT/mTOR signaling in human U87 cells assessed as up regulation of ZFP64 zinc finger protein gene expression at cytotoxic IC50 measured after 48 hrs relative to control
[27] = Inhibition of RTK/PI3K/AKT/mTOR signaling in human U87 cells assessed as up regulation of dysbindin domain containing 1 gene expression at cytotoxic IC50 measured after 48 hrs relative to control
[28] = Inhibition of RTK/PI3K/AKT/mTOR signaling in human U87 cells assessed as up regulation of choline/ethanolamine phosphotransferase 1 gene expression at cytotoxic IC50 measured after 48 hrs relative to control
[29] = Inhibition of RTK/PI3K/AKT/mTOR signaling in human U87 cells assessed as up regulation of CDCP1 gene expression at cytotoxic IC50 measured after 48 hrs relative to control
[30] = Inhibition of RTK/PI3K/AKT/mTOR signaling in human U87 cells assessed as up regulation of NAT9 gene expression at cytotoxic IC50 measured after 48 hrs relative to control
[31] = Inhibition of RTK/PI3K/AKT/mTOR signaling in human U87 cells assessed as up regulation of VHL gene expression at cytotoxic IC50 measured after 48 hrs relative to control
[32] = Inhibition of RTK/PI3K/AKT/mTOR signaling in human U87 cells assessed as up regulation of HPCAL1 gene expression at cytotoxic IC50 measured after 48 hrs relative to control

CC(=O)C(=NNc1ccccc1C#N)C(C)=O
log2FC [1]: -1.79
log2FC [2]: -1.64
log2FC [3]: -1.49
log2FC [4]: -1.17
log2FC [5]: -1.13
log2FC [6]: -1.03
log2FC [7]: -0.867
log2FC [8]: -0.844
log2FC [9]: -0.808
log2FC [10]: -0.797
log2FC [11]: -0.777
log2FC [12]: -0.769
log2FC [13]: -0.721
log2FC [14]: -0.705
log2FC [15]: -0.643
log2FC [16]: -0.602
log2FC [17]: -0.435
log2FC [18]: 4.5
log2FC [19]: 1.76
log2FC [20]: 1.74
log2FC [21]: 1.53
log2FC [22]: 1.3
log2FC [23]: 1.2
log2FC [24]: 0.972
log2FC [25]: 0.829
log2FC [26]: 0.774
log2FC [27]: 0.769
log2FC [28]: 0.769
log2FC [29]: 0.635
log2FC [30]: 0.624
log2FC [31]: 0.562
log2FC [32]: 0.514
